# Assay results taken from patent US20140161799A1 (ARCH ONCOLOGY, published 2014).
# Amino acid sequences for entries named in this document (tags omitted). Residues count along the entry.
# UniProt Q08722, residues 19-323: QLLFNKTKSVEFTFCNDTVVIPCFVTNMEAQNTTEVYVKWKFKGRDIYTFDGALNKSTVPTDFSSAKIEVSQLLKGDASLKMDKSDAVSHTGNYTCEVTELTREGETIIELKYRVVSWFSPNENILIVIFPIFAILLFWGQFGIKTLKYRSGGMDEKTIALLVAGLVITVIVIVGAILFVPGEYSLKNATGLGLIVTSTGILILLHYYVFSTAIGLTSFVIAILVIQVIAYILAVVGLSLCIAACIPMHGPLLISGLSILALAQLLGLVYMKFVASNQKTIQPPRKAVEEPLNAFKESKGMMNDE
# Results are given in words; binding and its absence hold for the method and conditions named. Some results given as binding are weak or reduced against the parent protein; the word gives no strength.
# T1: rat CD47 (rat, UniProt P97829 19-303)
# T1 construct: whole, on cells; also called CD47 on rat red blood cells
# T1 sequence (looked up): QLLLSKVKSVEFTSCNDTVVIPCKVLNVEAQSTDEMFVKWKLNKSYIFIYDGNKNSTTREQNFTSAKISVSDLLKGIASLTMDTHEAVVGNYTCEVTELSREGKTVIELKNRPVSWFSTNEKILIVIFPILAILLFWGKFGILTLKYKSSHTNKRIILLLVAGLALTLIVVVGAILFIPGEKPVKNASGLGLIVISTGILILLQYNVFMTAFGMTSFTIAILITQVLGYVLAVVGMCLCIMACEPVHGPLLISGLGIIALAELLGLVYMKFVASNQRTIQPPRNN
# T2: pig CD47 (pig, UniProt Q9GKE8 19-303)
# T2 construct: whole, on cells; also called CD47 on pig red blood cells
# T2 sequence (looked up): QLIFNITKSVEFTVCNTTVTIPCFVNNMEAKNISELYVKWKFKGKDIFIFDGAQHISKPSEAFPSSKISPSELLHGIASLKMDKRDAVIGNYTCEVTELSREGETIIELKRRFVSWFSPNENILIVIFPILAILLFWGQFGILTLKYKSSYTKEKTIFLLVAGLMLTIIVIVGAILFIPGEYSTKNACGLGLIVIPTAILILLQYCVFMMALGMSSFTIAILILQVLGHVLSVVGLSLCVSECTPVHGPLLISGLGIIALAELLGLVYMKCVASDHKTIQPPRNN
# T3: mouse CD47 (mouse, UniProt Q61735 19-303)
# T3 construct: whole, on cells; also called CD47 on mouse red blood cells
# T3 sequence (looked up): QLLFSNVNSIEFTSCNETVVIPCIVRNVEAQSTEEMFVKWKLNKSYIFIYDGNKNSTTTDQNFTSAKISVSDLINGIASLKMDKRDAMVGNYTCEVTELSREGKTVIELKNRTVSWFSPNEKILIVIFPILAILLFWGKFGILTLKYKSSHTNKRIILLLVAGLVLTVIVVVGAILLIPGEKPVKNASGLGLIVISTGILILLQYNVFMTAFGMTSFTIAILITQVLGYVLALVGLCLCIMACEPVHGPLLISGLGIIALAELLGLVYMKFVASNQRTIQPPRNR
# B1: pVxK7b-037-hum05-LC/pVxK7b-037-hum05-HC (antibody, human IgG1, V domains shown)
# VH: QVQLQESGPGLVKPSQTLSLTCTVSGYTFTNYYVFWVRQAPGKGLEWVSDINPVNGDTNFNEKFKNRVTISVDTSKNQFSLKLSSVTAADTAVYYCARGGYTMDYWGQG
# VL: DIVMTQTPLSLPVTPGEPASISCRSSQSLVHSNGNTYLHWYLQKPGQSPQLLIYKVSYRFSGVPDRFSGSGSGTDFTLKISRVEAEDVGVYYCSQNTHVPRTFGQG
# notes: Full-length human IgG1/kappa in CHO supernatant; Variable entries end within framework 4 (...FGQG / ...WGQG); also called Clone 5
# B2: pVxK7b-037-hum10-LC/pVxK7b-037-hum10-HC (antibody, human IgG1, V domains shown)
# VH: QVQLQESGPGLVKPSQTLSLTCTVSGYTFTNYYVFWVRQARGQRLEWIGDINPVNGDTNFNEKFKNRLTISKDTSKNQVVLTMTNMDPVDTATYYCARGGYTMDYWGQG
# VL: B1 VL
# notes: Full-length human IgG1/kappa in CHO supernatant; Variable entries end within framework 4 (...FGQG / ...WGQG); also called Clone 10
# B3: pVxK7b-037-hum11-LC/pVxK7b-037-hum11-HC (antibody, human IgG1, V domains shown)
# VH: QVQLQESGPGLVKPGATVKISCKVSGYTFTNYYVFWVRQARGQRLEWIGDINPVNGDTNFNEKFKNRVTITADKSTSTAYMELSSLRSEDTAVYYCARGGYTMDYWGQG
# VL: EIVLTQSPATLSVSPGERATLSCRSSQSLVHSNGNTYLHWYQQKPGQAPRLLIYKVSYRFSGVPSRFSGSGSGTDFTFTISSLEAEDAATYYCSQNTHVPRTFGQG
# notes: Full-length human IgG1/kappa in CHO supernatant; Variable entries end within framework 4 (...FGQG / ...WGQG); also called Clone 11
# B4: pVxK7b-037-hum22-LC/pVxK7b-037-hum22-HC (antibody, human IgG1, V domains shown)
# VH: B2 VH
# VL: B3 VL
# notes: Full-length human IgG1/kappa in CHO supernatant; Variable entries end within framework 4 (...FGQG / ...WGQG); also called Clone 22
# Biological target: T1, rat CD47
# Assay: flow cytometry on RBCs
row,binding,Binder
1,binds,B1
2,binds,B2
3,binds,B3
4,binds,B4

# Biological target: T2, pig CD47
# Assay: flow cytometry on RBCs
row,binding,Binder
1,binds,B1
2,binds,B2
3,binds,B3
4,binds,B4

# Biological target: T4, human CD47 (human, UniProt Q08722 19-323)
# T4 construct: whole, on cells; also called CD47 on human red blood cells
# Assay: flow cytometry on RBCs
row,binding,Binder
1,binds,B1
2,binds,B2
3,binds,B3
4,binds,B4

# Biological target: T3, mouse CD47
# Assay: flow cytometry on RBCs
row,binding,Binder
1,binds,B1
2,binds,B2
3,binds,B3
4,binds,B4
